# Measurements taken from the supplement of paper PMC9135407.
# Values joined by “and” are separate entries in the source; they are usually repeats but may differ in a detail not shown here. Identical values can stand only once. Counter-ions that a name gives are not always drawn. ± gives the standard deviation of the averaged measurements. The list shows a part of the results. Plates or batches differ in their baseline, so values are only roughly comparable.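 Primary human stellate myofibroblasts activated in culture; inactivation shown by regained lipid droplets. Readout: fraction of Hoechst-counted cells exceeding a per-plate Bodipy threshold, duplicate wells, each plate with DMSO negative and nortriptyline positive controls. Hits: control-normalized score beyond the plate's top-tenth-percentile nortriptyline wells, or among its three best wells. Final well concentrations unstated.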
# System: primary human hepatic stellate cells (donor 1)
# Assay: percent Bodipy-positive cells; higher = more lipid droplet accumulation
# Settings: 48 h
# [1] = library stock concentration: 3.33 mM
# [2] = library stock concentration: 10 mM
# [3] = library stock concentration: 80 uM
# [4] = library stock concentration: 400 uM
# [5] = library stock concentration: 1 mM
smiles,measurement,setting,value
CCN1CCN(Cc2ccc(Nc3ncc(F)c(-c4cc(F)c5nc(C)n(C(C)C)c5c4)n3)nc2)CC1.CS(=O)(=O)O,percent Bodipy-positive cells,[1],97.73 ± 0.43%
same,percent Bodipy-positive cells,[2],98 ± 1.1%
CCC(=O)OCC(=O)[C@@]1(OC(=O)CC)[C@@H](C)C[C@H]2[C@@H]3CCC4=CC(=O)C=C[C@]4(C)[C@@]3(Cl)[C@@H](O)C[C@@]21C [Beclomethasone dipropionate],percent Bodipy-positive cells,,6.47 ± 0.79%
same,percent Bodipy-positive cells,[1],10.1 ± 0.3%
same,percent Bodipy-positive cells,[2],17.4% and 11.6% and 30.9%
COc1nc(N)nc2c1ncn2[C@@H]1O[C@H](CO)[C@@H](O)[C@@H]1O [Nelarabine],percent Bodipy-positive cells,[1],16 ± 6%
same,percent Bodipy-positive cells,[2],18.7 ± 6.1%
O=C1NC(=O)c2c1c1c3ccccc3[nH]c1n1cncc21 [Isogranulatimide],percent Bodipy-positive cells,[1],14 ± 8.5%
O=C(CCCN1CCC(O)(c2cccc(C(F)(F)F)c2)CC1)c1ccc(F)cc1 [Trifluperidol 2HCl],percent Bodipy-positive cells,library stock concentration: 4.9 mM,26.2 ± 0.29%
CN(C)CCCn1cc(C2=C(c3c[nH]c4ccccc34)C(=O)NC2=O)c2ccccc21,percent Bodipy-positive cells,[1],53.8 ± 2.3%
same,percent Bodipy-positive cells,[2],84.1 ± 2%
same,percent Bodipy-positive cells,library stock concentration: 12.1 mM,65.5 ± 15%
CN(C)CCCn1cc(C2=C(c3c[nH]c4ccccc34)C(=O)NC2=O)c2ccccc21 [Bisindolylmaleimide I],percent Bodipy-positive cells,[1],56.2 ± 2.4%
COc1ccccc1N1CCN(CCCNc2cc(=O)n(C)c(=O)n2C)CC1 [Urapidil hydrochloride],percent Bodipy-positive cells,,7.87 ± 3%
same,percent Bodipy-positive cells,[2],20.6% and 6.63%
COc1ccccc1N1CCN(CCCNc2cc(=O)n(C)c(=O)n2C)CC1 [Urapidil HCl],percent Bodipy-positive cells,[1],5.81 ± 2.8%
same,percent Bodipy-positive cells,[2],23 ± 14%
COc1ccccc1N1CCN(CCCNc2cc(=O)n(C)c(=O)n2C)CC1,percent Bodipy-positive cells,[2],13.9 ± 0.24%
COc1ccccc1N1CCN(CCCNc2cc(=O)n(C)c(=O)n2C)CC1 [Urapidil],percent Bodipy-positive cells,[2],56.3 ± 22%
O=C(Nc1cccc(Nc2ncc(Br)c(NCCc3cnc[nH]3)n2)c1)N1CCCC1,percent Bodipy-positive cells,[3],10.3 ± 2.4%
same,percent Bodipy-positive cells,[4],15.4% and 23.6%
same,percent Bodipy-positive cells,library stock concentration: 2 mM,13.3% and 29%
same,percent Bodipy-positive cells,[1],7.37 ± 4.8%
same,percent Bodipy-positive cells,[2],65.8% and 87.6%
CN/C(=N\c1ccc(C2=NNC(=O)CC2C)cc1)NC#N (centres undefined) [Siguazodan],percent Bodipy-positive cells,library stock concentration: 7 mM,10 ± 2.8%
same,percent Bodipy-positive cells,[2],9.49 ± 1.1%
CCCCCCCCCCOCCC(=O)O [4-Oxatetradecanoic acid],percent Bodipy-positive cells,[5],35.1 ± 8.1%
C=C1C[C@H](O)[C@H](C/C=C\CCCC(=O)O)[C@H]1/C=C/[C@@H](O)CCCCC [11-deoxy-11-methylene Prostaglandin D2],percent Bodipy-positive cells,[5],12.4 ± 3.5%
CSc1ccccc1N1CCN(CCCCCC(=O)NC2CCCc3ccccc32)CC1.Cl (centres undefined),percent Bodipy-positive cells,[2],93.6 ± 1.8%
"CCCCCC=CCC=CCC=CCC=CCCCCCC(=O)O [Adrenic acid (22:4, n-6)]",percent Bodipy-positive cells,[5],21.9 ± 11%
c1cn2cc(-c3ccc4cn[nH]c4c3)nc(Nc3ccc(N4CCOCC4)cc3)c2n1 [Entospletinib],percent Bodipy-positive cells,[3],8.61 ± 2.4%
same,percent Bodipy-positive cells,[4],9.28 ± 0.98%
O=C1CCC(N2C(=O)c3ccccc3C2=O)C(=O)N1 (centres undefined) [Thalidomide],percent Bodipy-positive cells,,26.2 ± 0.7%
same,percent Bodipy-positive cells,[1],5.75 ± 1.7%
same,percent Bodipy-positive cells,library stock concentration: 7.7 mM,7.06% and 8.42%
same,percent Bodipy-positive cells,library stock concentration: 19.4 mM,9.47 ± 6.1%
O=C1CCC(N2C(=O)c3ccccc3C2=O)C(=O)N1 (centres undefined) [(?)-Thalidomide],percent Bodipy-positive cells,[2],22.2 ± 0.5%
O=C(OC[C@@H]1O[C@H]1c1ccccc1)Oc1ccc([N+](=O)[O-])cc1,percent Bodipy-positive cells,[5],10.1 ± 1.8%
CN(C)CCCN1c2ccccc2CCc2ccc(Cl)cc21.Cl [Clomipramine HCl],percent Bodipy-positive cells,[2],91.3 ± 2.3%
O=C(Nc1cccc2cccnc12)c1ccc(N2C(=O)[C@@H]3[C@H](C2=O)[C@@H]2C=C[C@H]3C2)cc1 [endo-IWR 1],percent Bodipy-positive cells,[2],7.83 ± 0.83%
C=CCCCCCCCCC(=O)O [Undecylenic acid],percent Bodipy-positive cells,library stock concentration: 10.9 mM,9.58 ± 2.2%
CC1(C)S[C@@H]2[C@H](NC(=O)Cc3ccccc3)C(=O)N2[C@H]1C(=O)O [Benzyl penicillin potassium],percent Bodipy-positive cells,[2],19 ± 16%
CC1(C)S[C@@H]2[C@H](NC(=O)Cc3ccccc3)C(=O)N2[C@H]1C(=O)O [Penicillin G Sodium],percent Bodipy-positive cells,[1],10.1 ± 9.1%
same,percent Bodipy-positive cells,[2],44.2 ± 16%
CC1(C)S[C@@H]2[C@H](NC(=O)Cc3ccccc3)C(=O)N2[C@H]1C(=O)O [Penicillin g potassium],percent Bodipy-positive cells,library stock concentration: 5.4 mM,1.94 ± 2.7%
CC1(C)S[C@@H]2[C@H](NC(=O)Cc3ccccc3)C(=O)N2[C@H]1C(=O)O [Benzathine benzylpenicillin],percent Bodipy-positive cells,,16.8 ± 8.9%
CC1(C)S[C@@H]2[C@H](NC(=O)Cc3ccccc3)C(=O)N2[C@H]1C(=O)O [Pfizerpen],percent Bodipy-positive cells,[2],24.8 ± 6.9%
CC1(C)S[C@@H]2[C@H](NC(=O)Cc3ccccc3)C(=O)N2[C@H]1C(=O)O [Benzylpenicillin sodium],percent Bodipy-positive cells,,12 ± 6.3%
CCCCc1nc(Cl)c(CO)n1Cc1ccc(-c2ccccc2-c2nnn[nH]2)cc1 [Losartan],percent Bodipy-positive cells,library stock concentration: 4.7 mM,6.65 ± 3.3%
same,percent Bodipy-positive cells,[2],39.6 ± 1.5%
CCCCc1nc(Cl)c(CO)n1Cc1ccc(-c2ccccc2-c2nnn[nH]2)cc1 [Losartan Potassium (DuP 753)],percent Bodipy-positive cells,[1],12.5 ± 7.6%
same,percent Bodipy-positive cells,[2],27.9 ± 20%
CCCCc1nc(Cl)c(CO)n1Cc1ccc(-c2ccccc2-c2nnn[nH]2)cc1 [LOSARTAN Potassium],percent Bodipy-positive cells,[2],6.86 ± 0.54%
CCN(CC)CCNC(=O)COc1ccc(OC)cc1 [Mefexamide],percent Bodipy-positive cells,library stock concentration: 6.3 mM,20.9 ± 3.6%
same,percent Bodipy-positive cells,[2],26.5 ± 4.7%
CCN(CC)CCNC(=O)COc1ccc(OC)cc1 [Mefexamide hydrochloride],percent Bodipy-positive cells,,31.7 ± 20%
Cc1nc2n(c(=O)c1CCN1CCC(c3noc4cc(F)ccc34)CC1)CCCC2O (centres undefined) [Paliperidone],percent Bodipy-positive cells,[2],65.5 ± 13%
CC(=O)OCC1=C(C(=O)O)N2C(=O)[C@@H](NC(=O)Cc3cccs3)[C@H]2SC1 [Cephalothin sodium],percent Bodipy-positive cells,library stock concentration: 4.8 mM,2.17 ± 0.79%
CC(=O)OCC1=C(C(=O)O)N2C(=O)[C@@H](NC(=O)Cc3cccs3)[C@H]2SC1 [Cephalothin sodium salt],percent Bodipy-positive cells,,10.5 ± 0.44%
